In publication PMC6911077:
These are yes or no findings as the source states them, for the method shown. In cells and extracts the contact can be indirect. Some entries that bind do so weakly or less than the wild type. Tags and fused reporters may be left off the sequences shown.

Sequences of proteins named here, by UniProt entry; tags and fusion partners are left off.
UniProt P78527: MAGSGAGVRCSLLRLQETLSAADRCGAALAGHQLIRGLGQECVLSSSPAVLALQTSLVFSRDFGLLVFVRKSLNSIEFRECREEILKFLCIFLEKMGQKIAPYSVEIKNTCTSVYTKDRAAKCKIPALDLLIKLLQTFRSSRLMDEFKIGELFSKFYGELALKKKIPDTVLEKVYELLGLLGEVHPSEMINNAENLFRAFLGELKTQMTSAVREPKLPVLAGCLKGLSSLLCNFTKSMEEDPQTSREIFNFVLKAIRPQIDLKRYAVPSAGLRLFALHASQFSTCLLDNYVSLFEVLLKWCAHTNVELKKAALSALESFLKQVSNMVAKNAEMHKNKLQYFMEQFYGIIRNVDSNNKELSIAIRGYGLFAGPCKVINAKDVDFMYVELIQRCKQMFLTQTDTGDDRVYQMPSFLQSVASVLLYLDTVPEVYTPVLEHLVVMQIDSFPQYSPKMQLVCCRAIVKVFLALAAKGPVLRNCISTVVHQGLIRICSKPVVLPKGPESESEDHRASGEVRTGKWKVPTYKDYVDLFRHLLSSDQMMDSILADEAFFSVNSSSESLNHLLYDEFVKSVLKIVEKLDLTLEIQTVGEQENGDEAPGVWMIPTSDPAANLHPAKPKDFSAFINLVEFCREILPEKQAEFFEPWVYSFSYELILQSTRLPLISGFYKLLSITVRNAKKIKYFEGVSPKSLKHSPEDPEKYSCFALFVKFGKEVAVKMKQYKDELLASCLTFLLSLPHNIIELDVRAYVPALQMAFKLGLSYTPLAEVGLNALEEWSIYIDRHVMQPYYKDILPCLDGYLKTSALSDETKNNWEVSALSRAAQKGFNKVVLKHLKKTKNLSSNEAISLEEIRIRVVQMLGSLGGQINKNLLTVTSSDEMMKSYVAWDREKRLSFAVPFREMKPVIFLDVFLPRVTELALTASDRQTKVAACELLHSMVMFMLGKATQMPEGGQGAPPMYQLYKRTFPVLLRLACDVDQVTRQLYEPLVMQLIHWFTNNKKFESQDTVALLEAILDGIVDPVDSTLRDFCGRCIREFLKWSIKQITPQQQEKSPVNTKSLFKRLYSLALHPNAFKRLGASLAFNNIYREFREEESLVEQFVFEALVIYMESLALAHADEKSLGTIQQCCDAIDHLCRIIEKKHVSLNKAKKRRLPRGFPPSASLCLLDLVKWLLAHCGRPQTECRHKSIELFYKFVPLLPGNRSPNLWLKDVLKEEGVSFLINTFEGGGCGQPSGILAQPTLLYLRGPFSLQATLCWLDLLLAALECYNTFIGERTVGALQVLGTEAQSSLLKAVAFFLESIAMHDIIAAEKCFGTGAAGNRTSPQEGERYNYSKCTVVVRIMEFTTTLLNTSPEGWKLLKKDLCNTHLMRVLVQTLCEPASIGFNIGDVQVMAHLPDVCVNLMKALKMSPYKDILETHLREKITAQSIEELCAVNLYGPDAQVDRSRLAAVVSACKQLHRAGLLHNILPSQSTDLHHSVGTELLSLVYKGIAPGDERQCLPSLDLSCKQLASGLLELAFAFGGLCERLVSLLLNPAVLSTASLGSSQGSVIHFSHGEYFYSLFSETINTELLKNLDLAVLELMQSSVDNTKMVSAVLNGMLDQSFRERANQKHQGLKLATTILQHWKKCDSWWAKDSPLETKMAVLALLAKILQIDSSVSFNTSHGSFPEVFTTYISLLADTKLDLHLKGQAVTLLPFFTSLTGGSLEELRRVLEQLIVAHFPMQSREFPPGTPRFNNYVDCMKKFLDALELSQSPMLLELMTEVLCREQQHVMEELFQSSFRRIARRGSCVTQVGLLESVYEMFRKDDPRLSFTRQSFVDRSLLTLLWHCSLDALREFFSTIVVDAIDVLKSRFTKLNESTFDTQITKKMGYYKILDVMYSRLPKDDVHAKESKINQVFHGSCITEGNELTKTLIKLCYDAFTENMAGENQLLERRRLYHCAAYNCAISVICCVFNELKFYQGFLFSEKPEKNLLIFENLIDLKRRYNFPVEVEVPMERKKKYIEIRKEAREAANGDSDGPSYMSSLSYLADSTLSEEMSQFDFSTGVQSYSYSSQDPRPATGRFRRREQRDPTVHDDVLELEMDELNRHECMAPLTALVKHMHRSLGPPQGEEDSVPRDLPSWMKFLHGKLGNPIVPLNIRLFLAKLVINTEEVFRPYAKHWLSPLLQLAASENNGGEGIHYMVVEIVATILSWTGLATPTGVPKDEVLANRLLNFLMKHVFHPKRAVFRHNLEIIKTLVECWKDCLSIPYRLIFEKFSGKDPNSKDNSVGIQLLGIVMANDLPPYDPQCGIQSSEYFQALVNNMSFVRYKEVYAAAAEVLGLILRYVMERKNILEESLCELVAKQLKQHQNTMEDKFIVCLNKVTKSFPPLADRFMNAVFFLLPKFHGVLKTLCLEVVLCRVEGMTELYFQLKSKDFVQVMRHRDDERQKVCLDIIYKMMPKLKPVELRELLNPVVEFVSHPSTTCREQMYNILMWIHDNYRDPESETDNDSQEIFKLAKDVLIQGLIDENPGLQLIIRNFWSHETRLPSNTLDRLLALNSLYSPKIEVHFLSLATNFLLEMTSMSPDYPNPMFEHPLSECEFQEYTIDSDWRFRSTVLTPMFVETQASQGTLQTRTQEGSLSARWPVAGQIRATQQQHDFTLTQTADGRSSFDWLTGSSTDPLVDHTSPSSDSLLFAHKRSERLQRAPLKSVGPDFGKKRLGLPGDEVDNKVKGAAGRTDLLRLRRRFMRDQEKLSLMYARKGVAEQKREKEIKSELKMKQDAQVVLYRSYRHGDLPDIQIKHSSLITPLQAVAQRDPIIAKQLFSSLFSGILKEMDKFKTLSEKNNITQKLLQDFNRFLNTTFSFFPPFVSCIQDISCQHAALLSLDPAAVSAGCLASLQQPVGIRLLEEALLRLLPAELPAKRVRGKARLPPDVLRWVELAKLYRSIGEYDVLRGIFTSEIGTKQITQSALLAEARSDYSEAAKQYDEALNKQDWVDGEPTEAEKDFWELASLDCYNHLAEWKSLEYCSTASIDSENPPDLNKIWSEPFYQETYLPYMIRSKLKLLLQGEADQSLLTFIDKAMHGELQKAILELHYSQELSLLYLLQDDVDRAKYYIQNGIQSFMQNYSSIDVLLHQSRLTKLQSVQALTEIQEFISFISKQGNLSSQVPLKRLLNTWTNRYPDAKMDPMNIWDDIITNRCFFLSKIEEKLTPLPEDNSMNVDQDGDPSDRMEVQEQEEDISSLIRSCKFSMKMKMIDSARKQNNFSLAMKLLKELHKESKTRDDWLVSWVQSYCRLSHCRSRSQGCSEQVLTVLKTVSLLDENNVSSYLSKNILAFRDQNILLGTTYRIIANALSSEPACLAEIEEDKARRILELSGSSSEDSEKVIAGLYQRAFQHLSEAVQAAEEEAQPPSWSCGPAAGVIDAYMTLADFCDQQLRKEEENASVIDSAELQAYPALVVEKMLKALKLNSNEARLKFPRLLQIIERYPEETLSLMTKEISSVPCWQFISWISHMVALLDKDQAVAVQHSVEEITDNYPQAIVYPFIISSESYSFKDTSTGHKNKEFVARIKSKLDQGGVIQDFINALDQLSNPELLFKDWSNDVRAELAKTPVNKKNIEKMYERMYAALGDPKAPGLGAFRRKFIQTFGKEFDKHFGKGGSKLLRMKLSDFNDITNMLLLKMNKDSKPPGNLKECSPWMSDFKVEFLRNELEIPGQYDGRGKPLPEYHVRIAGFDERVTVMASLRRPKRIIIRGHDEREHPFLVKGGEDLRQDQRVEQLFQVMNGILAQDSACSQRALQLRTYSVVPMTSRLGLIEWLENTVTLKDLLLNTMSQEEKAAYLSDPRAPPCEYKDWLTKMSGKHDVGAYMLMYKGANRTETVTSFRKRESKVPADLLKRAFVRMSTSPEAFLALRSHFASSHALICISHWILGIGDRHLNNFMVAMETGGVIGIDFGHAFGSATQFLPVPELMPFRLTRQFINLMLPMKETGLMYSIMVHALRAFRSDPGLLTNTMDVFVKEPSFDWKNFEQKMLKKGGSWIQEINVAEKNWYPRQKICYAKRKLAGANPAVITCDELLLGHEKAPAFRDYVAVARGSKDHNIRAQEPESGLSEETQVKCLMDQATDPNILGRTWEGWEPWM

Molecular target: T1, endogenous RAP1 (human (endogenous; cell line not named for this experiment)) (UniProt Q9NYB0)
T1 sequence: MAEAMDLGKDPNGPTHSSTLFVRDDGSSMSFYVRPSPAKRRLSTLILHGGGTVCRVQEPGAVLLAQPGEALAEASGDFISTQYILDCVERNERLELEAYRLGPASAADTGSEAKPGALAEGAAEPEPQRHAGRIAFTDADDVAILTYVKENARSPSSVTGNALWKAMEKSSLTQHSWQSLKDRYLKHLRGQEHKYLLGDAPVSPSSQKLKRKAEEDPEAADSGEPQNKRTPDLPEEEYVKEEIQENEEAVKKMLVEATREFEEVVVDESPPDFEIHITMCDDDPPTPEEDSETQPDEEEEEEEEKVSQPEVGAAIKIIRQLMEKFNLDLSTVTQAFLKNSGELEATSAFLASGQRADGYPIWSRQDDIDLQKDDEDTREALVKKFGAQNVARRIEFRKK
Experiment: SEC + co-IP; size exclusion chromatography of cell extracts followed by endogenous RAP1 IP and immunoblot; untreated cells, also Dox and CPT treated

DNA-PK (from UniProt P78527 1-4128)
binding: binds
